Measured values as given in patent US20260007599A1, “TICAGRELOR IV FORMULATIONS FOR USE IN THE TREATMENT OF GRAM-POSITIVE BACTEREMIA” (Hyloris Developments SA, priority 2023, published 2026).
This continues a long series; more values of the same kind are listed elsewhere.

Experiment: Solubilization of ticagrelor in unbuffered cyclodextrin stock solutions in milli Q water, appearance on shaking platform;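 further: plus means clear and fully dissolved while plus-minus means clear solution with precipitation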
Assay type: physicochemical
Experimental: In a first example two different types of cyclodextrin were used and compared for the solubilization of ticagrelor. An unbuffered stock solution of HPBCD or SBECD was made in water at the target concentrations of 20 w/w %, 25 w/w %, 30 w/w %, 35 w/w % and 40 w/w %. Ticagrelor was added slowly under vortex. Ticagrelor was used at concentrations of 5, 10 or 14 mg/ml in milli Q water. The ticagrelor-cyclodextrin solutions were left on a shaking platform. No sonification or heat was applied.

SMILES: CCCSc1nc(N[C@@H]2C[C@H]2c2ccc(F)c(F)c2)c2nnn([C@@H]3C[C@H](OCCO)[C@@H](O)[C@H]3O)c2n1 [ticagrelor, (1S,2S,3R,5S)-3-{7-[(1R,2S)-2-(3,4-difluorophenyl)cyclopropylamino]5-(propylthio)-3H-(1,2,3)triazolo (4,5-D)pyrimidin-3-yl}-5-(2 hydroxyethoxy) cyclopentane-1,2-diol]
- Appearance in cyclodextrin (SBECD 20% w/w, ticagrelor 5 mg/ml, after 5 min of shaking): − (translucent solution with precipitation)
- Appearance in cyclodextrin (SBECD 20% w/w, ticagrelor 5 mg/ml, after 30 min of shaking): − (translucent solution with precipitation)
- Appearance in cyclodextrin (SBECD 20% w/w, ticagrelor 5 mg/ml, after 60 min of shaking): − (translucent solution with precipitation)
- Appearance in cyclodextrin (SBECD 20% w/w, ticagrelor 5 mg/ml, after 3 h of shaking): − (translucent solution with precipitation)
- Appearance in cyclodextrin (SBECD 20% w/w, ticagrelor 5 mg/ml, after overnight shaking): − (translucent solution with precipitation)
- Appearance in cyclodextrin (SBECD 20% w/w, ticagrelor 10 mg/ml, after 5 min of shaking): − (translucent solution with precipitation)
- Appearance in cyclodextrin (SBECD 20% w/w, ticagrelor 10 mg/ml, after 30 min of shaking): − (translucent solution with precipitation)
- Appearance in cyclodextrin (SBECD 20% w/w, ticagrelor 10 mg/ml, after 60 min of shaking): − (translucent solution with precipitation)
- Appearance in cyclodextrin (SBECD 20% w/w, ticagrelor 10 mg/ml, after 3 h of shaking): − (translucent solution with precipitation)
- Appearance in cyclodextrin (SBECD 20% w/w, ticagrelor 10 mg/ml, after overnight shaking): − (translucent solution with precipitation)
- Appearance in cyclodextrin (SBECD 20% w/w, ticagrelor 14 mg/ml, after 5 min of shaking): − (translucent solution with precipitation)
- Appearance in cyclodextrin (SBECD 20% w/w, ticagrelor 14 mg/ml, after 30 min of shaking): − (translucent solution with precipitation)
- Appearance in cyclodextrin (SBECD 20% w/w, ticagrelor 14 mg/ml, after 60 min of shaking): − (translucent solution with precipitation)
- Appearance in cyclodextrin (SBECD 20% w/w, ticagrelor 14 mg/ml, after 3 h of shaking): − (translucent solution with precipitation)
- Appearance in cyclodextrin (SBECD 20% w/w, ticagrelor 14 mg/ml, after overnight shaking): − (translucent solution with precipitation)
- Appearance in cyclodextrin (SBECD 25% w/w, ticagrelor 5 mg/ml, after 5 min of shaking): − (translucent solution with precipitation)
- Appearance in cyclodextrin (SBECD 25% w/w, ticagrelor 5 mg/ml, after 30 min of shaking): − (translucent solution with precipitation)
- Appearance in cyclodextrin (SBECD 25% w/w, ticagrelor 5 mg/ml, after 60 min of shaking): − (translucent solution with precipitation)
- Appearance in cyclodextrin (SBECD 25% w/w, ticagrelor 5 mg/ml, after 3 h of shaking): − (translucent solution with precipitation)
- Appearance in cyclodextrin (SBECD 25% w/w, ticagrelor 5 mg/ml, after overnight shaking): − (translucent solution with precipitation)
- Appearance in cyclodextrin (SBECD 25% w/w, ticagrelor 10 mg/ml, after 5 min of shaking): − (translucent solution with precipitation)
- Appearance in cyclodextrin (SBECD 25% w/w, ticagrelor 10 mg/ml, after 30 min of shaking): − (translucent solution with precipitation)
- Appearance in cyclodextrin (SBECD 25% w/w, ticagrelor 10 mg/ml, after 60 min of shaking): − (translucent solution with precipitation)
- Appearance in cyclodextrin (SBECD 25% w/w, ticagrelor 10 mg/ml, after 3 h of shaking): − (translucent solution with precipitation)
- Appearance in cyclodextrin (SBECD 25% w/w, ticagrelor 10 mg/ml, after overnight shaking): − (translucent solution with precipitation)
- Appearance in cyclodextrin (SBECD 25% w/w, ticagrelor 14 mg/ml, after 5 min of shaking): − (translucent solution with precipitation)
- Appearance in cyclodextrin (SBECD 25% w/w, ticagrelor 14 mg/ml, after 30 min of shaking): − (translucent solution with precipitation)
- Appearance in cyclodextrin (SBECD 25% w/w, ticagrelor 14 mg/ml, after 60 min of shaking): − (translucent solution with precipitation)
- Appearance in cyclodextrin (SBECD 25% w/w, ticagrelor 14 mg/ml, after 3 h of shaking): − (translucent solution with precipitation)
- Appearance in cyclodextrin (SBECD 25% w/w, ticagrelor 14 mg/ml, after overnight shaking): − (translucent solution with precipitation)
- Appearance in cyclodextrin (SBECD 30% w/w, ticagrelor 5 mg/ml, after 5 min of shaking): − (translucent solution with precipitation)
- Appearance in cyclodextrin (SBECD 30% w/w, ticagrelor 5 mg/ml, after 30 min of shaking): − (translucent solution with precipitation)
- Appearance in cyclodextrin (SBECD 30% w/w, ticagrelor 5 mg/ml, after 60 min of shaking): − (translucent solution with precipitation)
- Appearance in cyclodextrin (SBECD 30% w/w, ticagrelor 5 mg/ml, after 3 h of shaking): − (translucent solution with precipitation)
- Appearance in cyclodextrin (SBECD 30% w/w, ticagrelor 5 mg/ml, after overnight shaking): − (translucent solution with precipitation)
- Appearance in cyclodextrin (SBECD 30% w/w, ticagrelor 10 mg/ml, after 5 min of shaking): − (translucent solution with precipitation)
- Appearance in cyclodextrin (SBECD 30% w/w, ticagrelor 10 mg/ml, after 30 min of shaking): − (translucent solution with precipitation)
- Appearance in cyclodextrin (SBECD 30% w/w, ticagrelor 10 mg/ml, after 60 min of shaking): − (translucent solution with precipitation)
- Appearance in cyclodextrin (SBECD 30% w/w, ticagrelor 10 mg/ml, after 3 h of shaking): − (translucent solution with precipitation)
- Appearance in cyclodextrin (SBECD 30% w/w, ticagrelor 10 mg/ml, after overnight shaking): − (translucent solution with precipitation)
- Appearance in cyclodextrin (SBECD 30% w/w, ticagrelor 14 mg/ml, after 5 min of shaking): − (translucent solution with precipitation)
- Appearance in cyclodextrin (SBECD 30% w/w, ticagrelor 14 mg/ml, after 30 min of shaking): − (translucent solution with precipitation)
- Appearance in cyclodextrin (SBECD 30% w/w, ticagrelor 14 mg/ml, after 60 min of shaking): − (translucent solution with precipitation)
- Appearance in cyclodextrin (SBECD 30% w/w, ticagrelor 14 mg/ml, after 3 h of shaking): − (translucent solution with precipitation)
- Appearance in cyclodextrin (SBECD 30% w/w, ticagrelor 14 mg/ml, after overnight shaking): − (translucent solution with precipitation)
- Appearance in cyclodextrin (SBECD 40% w/w, ticagrelor 5 mg/ml, after 5 min of shaking): − (translucent solution with precipitation)
- Appearance in cyclodextrin (SBECD 40% w/w, ticagrelor 5 mg/ml, after 30 min of shaking): +/−
- Appearance in cyclodextrin (SBECD 40% w/w, ticagrelor 5 mg/ml, after 60 min of shaking): +/−
- Appearance in cyclodextrin (SBECD 40% w/w, ticagrelor 5 mg/ml, after 3 h of shaking): +/−
- Appearance in cyclodextrin (SBECD 40% w/w, ticagrelor 5 mg/ml, after overnight shaking): + (clear, appeared completely dissolved)
